Results taken from paper PMC9239255, “Switching off Bacterial Flagellar Biogenesis by YdiU-Mediated UMPylation of FlhDC”.
Where a chain is given by its changes, count along the chain named. Results are given in words; binding and its absence hold for the method and conditions named. Some entries that bind do so weakly or less than the wild type.

Key:
[1] = biological target: T1, FlhC T86A (E. coli strain K-12 substrain MG1655) (UniProt P0ABY7); assay: co-purification after co-expression; FlhD and mutated FlhC co-expressed from the flhDC coexpression construct (pET21b) in E. coli BL21(DE3) or BL21(DE3) ΔydiU; purified as in ref. 30
T1 sequence: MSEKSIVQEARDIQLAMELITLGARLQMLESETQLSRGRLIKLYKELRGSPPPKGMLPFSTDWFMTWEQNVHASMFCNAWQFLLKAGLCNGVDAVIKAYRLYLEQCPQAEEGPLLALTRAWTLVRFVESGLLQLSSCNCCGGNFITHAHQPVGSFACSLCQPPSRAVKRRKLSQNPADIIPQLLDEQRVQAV

[2] = biological target: T2, FlhC T21A (E. coli strain K-12 substrain MG1655) (UniProt P0ABY7); assay: as above
T2 sequence: T1 sequence with T21A, A86T

binding [1]: binds
binding [2]: binds
B1: FlhD (protein, UniProt P0A8S9 1-116)
chain: MHTSELLKHIYDINLSYLLLAQRLIVQDKASAMFRLGINEEMATTLAALTLPQMVKLAETNQLVCHFRFDSHQTITQLTQDSRVDDLQQIHTGIMLSTRLLNDVNQPEEALRKKRA
